Test results reported in ChEMBL document CHEMBL1128393 (J Med Chem, 1995).

Target: T1, Cytochrome P450 11B2, mitochondrial (Rattus norvegicus, UniProt P30099)
T1 sequence (P30099 whole entry): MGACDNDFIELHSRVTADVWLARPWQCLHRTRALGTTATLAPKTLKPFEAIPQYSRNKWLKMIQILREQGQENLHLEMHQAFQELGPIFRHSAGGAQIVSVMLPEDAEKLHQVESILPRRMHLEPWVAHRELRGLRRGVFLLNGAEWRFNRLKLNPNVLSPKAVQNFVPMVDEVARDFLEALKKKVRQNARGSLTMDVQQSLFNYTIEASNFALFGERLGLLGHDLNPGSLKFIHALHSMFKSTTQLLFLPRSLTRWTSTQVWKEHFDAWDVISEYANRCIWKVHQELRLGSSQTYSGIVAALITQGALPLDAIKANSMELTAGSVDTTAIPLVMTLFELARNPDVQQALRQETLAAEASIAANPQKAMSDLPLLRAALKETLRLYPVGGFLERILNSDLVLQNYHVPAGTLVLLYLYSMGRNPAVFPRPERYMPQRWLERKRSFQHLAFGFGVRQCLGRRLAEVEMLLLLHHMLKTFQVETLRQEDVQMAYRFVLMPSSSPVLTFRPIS

`N#Cc1ccc(C2CCCc3cncn32)cc1` (stereo unspecified) [FADROZOLE] showed an IC50 of 0.6 µM.
